Primary screen of a compound library

Protein sequences, listed by entry. Tags and fused reporters are not part of them. Residues count along the entry.
UniProt I6X8D2, whole entry: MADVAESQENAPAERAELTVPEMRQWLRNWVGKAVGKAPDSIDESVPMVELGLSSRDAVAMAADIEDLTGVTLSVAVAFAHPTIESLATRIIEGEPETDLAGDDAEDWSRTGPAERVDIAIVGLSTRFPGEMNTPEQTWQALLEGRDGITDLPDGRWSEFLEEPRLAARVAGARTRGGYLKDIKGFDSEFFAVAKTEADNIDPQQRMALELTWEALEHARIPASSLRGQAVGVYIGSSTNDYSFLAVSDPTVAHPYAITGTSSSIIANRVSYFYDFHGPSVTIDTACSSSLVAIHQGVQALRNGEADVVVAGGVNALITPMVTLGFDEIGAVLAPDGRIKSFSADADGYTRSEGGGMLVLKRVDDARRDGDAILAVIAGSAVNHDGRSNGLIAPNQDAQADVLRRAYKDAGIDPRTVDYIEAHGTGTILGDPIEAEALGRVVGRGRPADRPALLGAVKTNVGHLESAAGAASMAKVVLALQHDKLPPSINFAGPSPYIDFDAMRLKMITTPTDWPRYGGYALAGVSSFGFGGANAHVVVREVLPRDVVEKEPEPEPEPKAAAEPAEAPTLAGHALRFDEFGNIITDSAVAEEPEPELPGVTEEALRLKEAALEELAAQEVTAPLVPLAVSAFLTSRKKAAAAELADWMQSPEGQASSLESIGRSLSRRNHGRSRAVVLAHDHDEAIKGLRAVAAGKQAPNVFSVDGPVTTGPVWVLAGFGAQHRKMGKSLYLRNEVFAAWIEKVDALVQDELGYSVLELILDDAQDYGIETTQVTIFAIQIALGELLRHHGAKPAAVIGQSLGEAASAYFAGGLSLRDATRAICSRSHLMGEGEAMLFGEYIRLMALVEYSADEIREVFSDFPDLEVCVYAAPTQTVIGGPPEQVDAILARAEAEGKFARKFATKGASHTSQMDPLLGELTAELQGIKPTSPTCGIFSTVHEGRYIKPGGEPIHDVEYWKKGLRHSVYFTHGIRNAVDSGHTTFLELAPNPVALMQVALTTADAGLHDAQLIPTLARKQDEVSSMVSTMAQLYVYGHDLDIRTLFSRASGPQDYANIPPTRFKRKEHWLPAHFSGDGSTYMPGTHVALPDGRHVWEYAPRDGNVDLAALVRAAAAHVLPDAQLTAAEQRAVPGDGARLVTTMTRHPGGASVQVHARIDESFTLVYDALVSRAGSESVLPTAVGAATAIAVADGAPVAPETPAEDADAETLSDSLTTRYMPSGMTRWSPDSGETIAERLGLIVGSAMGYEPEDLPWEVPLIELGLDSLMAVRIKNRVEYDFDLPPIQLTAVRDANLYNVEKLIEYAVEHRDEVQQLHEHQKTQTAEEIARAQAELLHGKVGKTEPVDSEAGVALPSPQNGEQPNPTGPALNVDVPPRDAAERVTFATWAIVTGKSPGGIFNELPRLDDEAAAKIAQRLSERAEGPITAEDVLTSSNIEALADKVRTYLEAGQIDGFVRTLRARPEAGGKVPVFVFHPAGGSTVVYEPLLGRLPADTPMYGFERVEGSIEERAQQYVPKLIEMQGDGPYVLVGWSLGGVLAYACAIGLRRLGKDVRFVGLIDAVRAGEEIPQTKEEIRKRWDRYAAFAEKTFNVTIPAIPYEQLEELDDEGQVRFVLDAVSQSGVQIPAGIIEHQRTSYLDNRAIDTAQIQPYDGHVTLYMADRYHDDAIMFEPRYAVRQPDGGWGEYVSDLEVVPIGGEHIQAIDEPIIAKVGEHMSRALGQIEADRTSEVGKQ
UniProt A4I591, 1-473: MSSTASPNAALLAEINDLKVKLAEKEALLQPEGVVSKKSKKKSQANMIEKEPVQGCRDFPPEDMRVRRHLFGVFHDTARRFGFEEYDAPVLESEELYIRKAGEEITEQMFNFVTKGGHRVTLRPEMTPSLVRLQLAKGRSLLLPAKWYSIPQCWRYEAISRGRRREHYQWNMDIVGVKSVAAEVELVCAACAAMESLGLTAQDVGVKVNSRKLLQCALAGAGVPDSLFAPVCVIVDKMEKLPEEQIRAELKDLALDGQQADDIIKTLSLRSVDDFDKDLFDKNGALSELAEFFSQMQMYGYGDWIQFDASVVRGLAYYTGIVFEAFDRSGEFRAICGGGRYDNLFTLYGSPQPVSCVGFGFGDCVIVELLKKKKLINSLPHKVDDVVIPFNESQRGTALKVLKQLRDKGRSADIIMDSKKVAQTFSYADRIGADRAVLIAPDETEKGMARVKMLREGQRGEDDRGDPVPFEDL

The values are deposited in ChEMBL (CHEMBL3988442, “University of Dundee, Small-Polar-MMV Screening Library” (2021)).

A: 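Enzyme assay of the thioesterase domain of polyketide synthase 13; the read-out is not stated. Target: Polyketide synthase Pks13, Mycobacterium tuberculosis (UniProt I6X8D2). Concentration: 30 µM. The record gives no direction; the compounds picked for IC50 retests had high values, so higher reads as stronger inhibition. Of about 67,000 compounds tested this way, about 300 (0.46%) reached 50% or more in at least one test.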
B: 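Histidine-tRNA ligase, Leishmania infantum (UniProt A4I591). Enzyme assay of histidyl-tRNA synthetase; the read-out is not stated. Compounds at 30 µM. Higher reads as stronger inhibition (inferred: compounds with an IC50 in retests scored well above the rest). The assay is labelled LdHisRS but filed under L. infantum. Of about 69,000 compounds tested this way, about 410 (0.6%) reached 50% or more in at least one test.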

Values are the deposited “Percent Effect”, in %. The controls that fix the scale are not given in the record; negative values are as filed. Compounds were drawn at random from those tested, without regard to their results. A dash means the value is not listed here; it may have been measured.

structure	A	B
Cn1ncc2c(=O)[nH]c(CN3CCCC3Cc3ccccc3)nc21 (centres unmarked)	-0.1748%	19.7%
Cc1occc1CNc1ncccc1S(N)(=O)=O	-16.63%	14.67%
COc1cccc(NC(=O)CN(C(C)C)C2CC2)c1	-5.627%	8.889%
CCN(Cc1nc2c(cnn2C)c(=O)[nH]1)c1ccc(F)cc1	-7.87%	11.3%
CN(Cc1cc2n(n1)CCNC2)Cc1n[nH]c2c1CCCCC2	0.8677%	8.197%
CCc1nc(CNC(=O)Nc2ccc(C(=O)NC)cc2C)cs1	-12.76%	18.45%
CCN(CC)Cc1cc(C(=O)N2CCC3(CC2)NCCNC3=O)c(C)o1	1.062%	3.947%
c1ccc(-c2ccc(C3CNCCO3)nc2)cc1 (centres unmarked)	-15.82%	14.29%
CCCC(=O)N(CCN1CCOCC1)c1nc2c(OC)ccc(C)c2s1	-36.69%	-3.478%
CC(=O)Nc1ccc2c(c1)C1(CCOCC1)C(=O)N2c1ccsc1	-14.94%	17.95%
Cc1ccc(C(=O)N(CC(=O)O)CC(C)C)cc1F	-4.825%	10.87%
CCc1noc(C(C)N2CCN(Cc3nc(C)c(C)o3)CC2)n1 (centres unmarked)	-12.16%	-23.2%
Cc1cc(Br)ccc1CNC(=O)C1(O)CCSCC1	-2.715%	11.46%
Cc1c[nH]nc1C1CCN(C(=O)CC2CCCC2)C1 (centres unmarked)	3.904%	14.18%
CC(=O)N1CCC(C(=O)Nc2nc(C3CC3)cs2)CC1	-2.9%	16.13%
CS(=O)(=O)c1cn[nH]c1C1CCCN(C(=O)Cn2cccn2)C1 (centres unmarked)	-1.805%	2.069%
Cc1nccn1C1CCCN(C(=O)CCc2nc(C(C)C)no2)C1 (centres unmarked)	-8.361%	0%
COc1cc(C(C)=O)ccc1SCC(=O)Nc1cccc(C)n1	-42.84%	14.17%
CNC(=O)C1CCC2(CCNCC2)C1 (centres unmarked)	-20.5%	15.53%
Cc1ccsc1CN1CC[C@H]2O[C@H](C(=O)N3CCCO3)CC[C@H]21	-11.03%	25.71%
COc1cc(Oc2ncccc2C(F)(F)F)ccc1CN1CCCC1	-6.626%	12.5%
Cc1cc(C)c2c(N3CCCN(C(=O)C4CCC4)CC3)ncnc2n1	-3.736%	24.49%
Cc1nn(C)c2nc(N(C)CC3CCN(CC(C)C)C3)sc12 (centres unmarked)	-18.95%	22.39%
COCC1CN(Cc2ccc(OC)cc2)Cc2nnn(CC3CC3)c21 (centres unmarked)	-33.01%	23.29%
Cc1nnc([C@]23COC[C@H]2CN(Cc2cnn(C)c2)C3)o1	-0.4354%	27.35%
CN1CCC/C1=N\S(=O)(=O)c1ccc(NC(=O)Cc2cccs2)cc1	-23.76%	15.38%
CCn1ncc2c1CN(C(=O)c1cc(C)oc1C)CC2COC (centres unmarked)	-0.5669%	7.692%
O=C1CCCN1Cc1noc(-c2ccc(Cl)cc2)n1	-12.63%	5.517%
Cc1nc(NCC(O)CN2CCCCCC2)c2c(C)nn(C)c2n1 (centres unmarked)	-29.84%	24.05%
c1cncc(N2CCCn3nnc(COCC4CC4)c3C2)c1	6.395%	17.31%
COc1ccc(C[C@@H]2CC[C@H](CN(C)C3CCN(C)CC3)O2)cc1	-16.1%	25.37%
CN(C)C(CNC(=O)c1cccc(-n2cnnn2)c1)c1ccccc1Cl (centres unmarked)	-11.94%	11.54%
O=C(c1cn(-c2ccc(C(F)(F)F)cn2)nn1)N1CCCCCC1	-27.42%	18.42%
CC(Cn1cccn1)NCc1nc(-c2ccc3c(c2)OCO3)no1 (centres unmarked)	6.21%	23.08%
O=C(c1ccco1)N1CCc2onc(Cn3cccn3)c2C1	-2.297%	1.818%
O=C(c1ccco1)N1CCCC(c2cc(C(F)F)n3ncnc3n2)C1 (centres unmarked)	-38.02%	8.333%
O=C(CCc1ccc(Cl)s1)N1CCCC(N2CCNC2=O)C1 (centres unmarked)	6.411%	20.48%
C[C@@H]1CN(Cc2ccccc2)CCN1C(=O)NCc1nccs1	-8.328%	17.17%
Cc1cc(C2CCCN(S(=O)(=O)N(C)C)C2)ccn1 (centres unmarked)	-18.85%	1.418%
CC(C)=CCN1CCN(Cc2cccc(C)n2)CC1CCO (centres unmarked)	12%	18.57%
CC(=O)N(Cc1ncc(C(C)C)o1)C1CCN(CCn2cncn2)C1 (centres unmarked)	-0.7341%	14.68%
O=C(c1ccccc1)N1CCOC2(CCN(Cc3cccs3)CC2)C1	-53.4%	-1.923%
Cc1cccnc1CN1CCOC(Cc2cccc3ccccc23)C1 (centres unmarked)	-42.52%	15.38%
CC(=O)N1C[C@H](NS(=O)(=O)N2CCCC2)[C@@H](c2ccc(C)o2)C1	-28.23%	5%
CC(C)N1CCc2c(C#N)c(NCc3ccco3)n3cnnc3c2C1	-1.801%	17.14%
CC(C)c1n[nH]c(C2CN(C(=O)c3cc4c(s3)CCC4)CCO2)n1 (centres unmarked)	-4.938%	10.17%
COc1cccc(OCC2CCCN(C(=O)c3cnc(C)nc3O)C2)c1 (centres unmarked)	-21.03%	21.15%
CC(C)Cc1nc(CN2CCCC2Cn2cncn2)no1 (centres unmarked)	-15.89%	19.64%
Cc1nc(CC(=O)NCCN2CCC(c3ccccc3C)C2)cs1 (centres unmarked)	5.3%	24.18%
O=C([C@H]1CC[C@@H]2[C@@H](CCN2C2CCOCC2)O1)N1CCOCC1	5.191%	17.31%
CC(C)CCNc1nc(C(=O)NC2CC2)cs1	0.9849%	5.263%
CN1CCC(N2CCOC[C@H]2c2nc(C(C)(C)C)c[nH]2)CC1	-31.21%	22.97%
CC(C)c1nccn1CCC(=O)N1CCCCC1c1ccn[nH]1 (centres unmarked)	2.133%	0%
Cc1c(C(=O)N[C@@H]2CC[C@@H](N3CCCC3)[C@@H]2O)[nH]c2ccc(F)cc12	-22%	4.225%
CC(=O)N[C@H]1CCO[C@@H](c2cccc(NC(=O)Cc3ccccc3)c2)C1	-6.738%	-2.797%
O=C(NCc1nn(-c2ccccc2)c2c1CCC2)C1CC1	-34.78%	14.68%
CCOC(C)c1nc(CN2CCC(NC(C)C)CC2)cs1 (centres unmarked)	-4.847%	11.29%
O=C(C1CCCN(CCc2ccc3c(c2)CCO3)C1)N1CCCC1 (centres unmarked)	12.09%	15.66%
CN(C)[C@H]1C[C@@H](Cc2cc(CO)on2)C1(C)C	-32.82%	24.32%
O=C(NCc1ccccc1CN1CCCC1=O)Nc1nncs1	4.344%	9.649%
CCOCc1nn(CC2CC2)c2c1CN(Cc1cccs1)CC2	-26.02%	15.32%
CNC(=O)c1cn[nH]c1C1CCN(Cc2cccc(C)c2OC)C1 (centres unmarked)	8.076%	6.207%
CC(=O)N1CCC12CCN(Cc1ccco1)CC2	-55.95%	-1.923%
O=C(NCCCO)C1(CC2CC(c3ccc(F)cc3)=NO2)CCOCC1 (centres unmarked)	-5.677%	2.685%
COC(=O)[C@H](CSC)Nc1nc(C2CCCC2)nc2c1cnn2C	-15.47%	12.77%
Cc1nc(N2CCN(C(=O)c3ccco3)CC2)c2c(n1)c(C)nn2C	-26.39%	12.07%
CCc1nc(CC)n(CC(=O)N(C)CC(F)(F)F)n1	-8.824%	6.25%
CNC(=O)[C@H]1C[C@H]2OCC[C@H]2N(Cc2ccc(C)o2)C1	-2.127%	10.68%
Cn1cc(CNC2CC3(CCN(S(C)(=O)=O)CC3)c3ccccc32)cn1 (centres unmarked)	-	19.8%
O=C(CN1CCS(=O)(=O)CC1)NC1CCCc2ccccc21 (centres unmarked)	-12.18%	16.13%
O=C(CCn1ccnn1)N1CCCC(n2cncn2)C1 (centres unmarked)	-6.137%	11.67%
c1ccc(C2CN(C3CC3)CC3(CCN(Cc4ncc[nH]4)CC3)C2)cc1 (centres unmarked)	0.2912%	13.73%
CN(C)CCCNC(=O)c1cc(Br)c2c(c1)OCCO2	-12.81%	20.39%
CCS(=O)(=O)N1CCc2ccc(NC(=O)NC(C)(C)C)cc21	-10.74%	22.47%
CCc1c(C(=O)N2CC[C@H](N3CCOCC3)[C@H](CCCO)C2)csc1C	-14.74%	10.53%
CNC(=O)NCC(CO)Cc1cccc(OC(F)(F)F)c1 (centres unmarked)	1.091%	9.89%
Cc1noc2nc(C3CCN(Cc4cccnc4)CC3)cc(C(F)F)c12	-33.62%	8.333%
COC(=O)c1sc(NCc2ccc(N3CCC(O)CC3)c(F)c2)nc1Cl	9.049%	8.824%
CN(C)CCCNCCC(Cc1ccccc1)C1CCOC(C)(C)C1 (centres unmarked)	-4.063%	14.58%
O=C1CCN(CCCS(=O)(=O)c2ccc(Cl)cc2)CCN1	6.648%	10.2%
CCN(CC)C(CNS(=O)(=O)NCc1ccccc1)c1ccco1 (centres unmarked)	-9.549%	12.9%